The results in this text go back to the supplement of paper PMC11006884.

The chains behind the UniProt entries cited, without tags or fusion partners. Where a name states a change or a piece, a line headed by the entry shows the natural chain unless it says otherwise.
UniProt Q9UPN7: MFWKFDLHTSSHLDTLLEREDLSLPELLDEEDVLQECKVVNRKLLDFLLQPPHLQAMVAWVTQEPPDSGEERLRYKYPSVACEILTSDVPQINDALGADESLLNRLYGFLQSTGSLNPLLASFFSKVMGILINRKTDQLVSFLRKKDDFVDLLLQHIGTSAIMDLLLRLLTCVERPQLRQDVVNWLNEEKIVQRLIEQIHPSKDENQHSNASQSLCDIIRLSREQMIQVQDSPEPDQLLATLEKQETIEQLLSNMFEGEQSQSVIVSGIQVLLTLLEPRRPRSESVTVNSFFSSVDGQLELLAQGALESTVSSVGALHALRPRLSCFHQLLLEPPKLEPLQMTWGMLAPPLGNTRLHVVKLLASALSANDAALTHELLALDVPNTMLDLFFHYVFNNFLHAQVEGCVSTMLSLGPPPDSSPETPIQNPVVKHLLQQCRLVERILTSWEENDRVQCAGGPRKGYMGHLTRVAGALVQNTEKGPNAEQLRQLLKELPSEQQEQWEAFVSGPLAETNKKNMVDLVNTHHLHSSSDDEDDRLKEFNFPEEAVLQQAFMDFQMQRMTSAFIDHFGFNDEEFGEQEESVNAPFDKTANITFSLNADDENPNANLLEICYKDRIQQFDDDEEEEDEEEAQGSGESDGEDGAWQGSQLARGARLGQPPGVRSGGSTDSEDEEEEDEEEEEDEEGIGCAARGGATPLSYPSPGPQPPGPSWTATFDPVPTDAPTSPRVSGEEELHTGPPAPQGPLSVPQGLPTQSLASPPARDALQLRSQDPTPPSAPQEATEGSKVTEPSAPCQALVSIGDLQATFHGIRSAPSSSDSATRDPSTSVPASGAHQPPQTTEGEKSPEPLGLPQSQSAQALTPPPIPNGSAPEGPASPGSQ
UniProt Q9UNH7: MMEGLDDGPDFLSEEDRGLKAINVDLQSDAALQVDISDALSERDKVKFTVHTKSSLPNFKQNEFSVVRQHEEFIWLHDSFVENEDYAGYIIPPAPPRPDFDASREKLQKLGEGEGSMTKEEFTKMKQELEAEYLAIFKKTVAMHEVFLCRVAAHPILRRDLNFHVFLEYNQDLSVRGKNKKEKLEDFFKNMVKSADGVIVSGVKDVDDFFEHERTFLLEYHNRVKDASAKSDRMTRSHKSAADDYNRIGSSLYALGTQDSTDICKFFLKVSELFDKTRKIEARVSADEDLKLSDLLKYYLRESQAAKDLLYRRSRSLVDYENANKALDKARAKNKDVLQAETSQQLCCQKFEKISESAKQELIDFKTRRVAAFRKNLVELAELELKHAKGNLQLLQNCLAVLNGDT
UniProt Q9UPN9: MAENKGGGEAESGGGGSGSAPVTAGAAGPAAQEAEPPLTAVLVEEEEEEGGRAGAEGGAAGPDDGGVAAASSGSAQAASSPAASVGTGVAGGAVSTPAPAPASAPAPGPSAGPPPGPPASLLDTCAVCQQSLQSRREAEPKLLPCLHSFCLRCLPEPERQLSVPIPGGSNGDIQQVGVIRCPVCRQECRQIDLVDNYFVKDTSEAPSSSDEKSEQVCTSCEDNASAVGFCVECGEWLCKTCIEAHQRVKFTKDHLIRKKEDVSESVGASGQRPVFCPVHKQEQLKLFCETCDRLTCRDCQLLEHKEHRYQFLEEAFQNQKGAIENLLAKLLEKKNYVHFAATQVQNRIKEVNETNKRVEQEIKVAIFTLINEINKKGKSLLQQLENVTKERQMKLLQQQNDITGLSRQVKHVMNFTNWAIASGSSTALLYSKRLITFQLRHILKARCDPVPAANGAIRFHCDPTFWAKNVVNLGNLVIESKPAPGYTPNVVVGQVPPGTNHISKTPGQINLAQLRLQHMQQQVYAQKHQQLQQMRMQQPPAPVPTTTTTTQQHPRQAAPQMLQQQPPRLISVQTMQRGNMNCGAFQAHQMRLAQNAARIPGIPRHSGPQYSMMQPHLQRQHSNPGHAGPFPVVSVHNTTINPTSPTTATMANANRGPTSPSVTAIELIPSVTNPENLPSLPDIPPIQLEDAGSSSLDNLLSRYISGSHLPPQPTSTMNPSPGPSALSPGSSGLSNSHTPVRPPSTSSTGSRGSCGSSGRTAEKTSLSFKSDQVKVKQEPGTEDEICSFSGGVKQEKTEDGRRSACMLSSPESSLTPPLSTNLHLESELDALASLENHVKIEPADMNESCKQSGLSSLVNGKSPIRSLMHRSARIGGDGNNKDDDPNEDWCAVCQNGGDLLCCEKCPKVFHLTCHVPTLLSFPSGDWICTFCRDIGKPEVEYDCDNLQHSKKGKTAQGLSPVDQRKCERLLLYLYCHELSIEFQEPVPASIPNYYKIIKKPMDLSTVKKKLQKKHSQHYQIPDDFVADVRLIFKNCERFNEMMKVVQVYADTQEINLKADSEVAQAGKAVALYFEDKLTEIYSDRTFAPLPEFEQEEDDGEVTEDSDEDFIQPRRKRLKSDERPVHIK
UniProt Q9Y3C8: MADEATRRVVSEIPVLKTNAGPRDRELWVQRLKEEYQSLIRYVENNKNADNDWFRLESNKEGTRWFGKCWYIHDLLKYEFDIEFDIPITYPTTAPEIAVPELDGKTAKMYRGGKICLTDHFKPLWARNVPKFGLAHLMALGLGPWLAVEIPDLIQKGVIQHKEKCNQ
UniProt Q9Y383: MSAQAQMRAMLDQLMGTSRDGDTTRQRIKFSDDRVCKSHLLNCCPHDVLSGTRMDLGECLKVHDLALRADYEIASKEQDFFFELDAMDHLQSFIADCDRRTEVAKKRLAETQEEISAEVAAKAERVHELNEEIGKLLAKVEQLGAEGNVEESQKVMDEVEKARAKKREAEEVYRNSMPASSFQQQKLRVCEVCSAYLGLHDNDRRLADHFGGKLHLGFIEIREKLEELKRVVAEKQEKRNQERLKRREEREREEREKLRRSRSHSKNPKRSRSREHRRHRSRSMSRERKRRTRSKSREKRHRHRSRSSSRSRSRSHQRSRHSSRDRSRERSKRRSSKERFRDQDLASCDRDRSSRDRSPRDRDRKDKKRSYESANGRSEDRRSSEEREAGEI
UniProt Q9UKX7: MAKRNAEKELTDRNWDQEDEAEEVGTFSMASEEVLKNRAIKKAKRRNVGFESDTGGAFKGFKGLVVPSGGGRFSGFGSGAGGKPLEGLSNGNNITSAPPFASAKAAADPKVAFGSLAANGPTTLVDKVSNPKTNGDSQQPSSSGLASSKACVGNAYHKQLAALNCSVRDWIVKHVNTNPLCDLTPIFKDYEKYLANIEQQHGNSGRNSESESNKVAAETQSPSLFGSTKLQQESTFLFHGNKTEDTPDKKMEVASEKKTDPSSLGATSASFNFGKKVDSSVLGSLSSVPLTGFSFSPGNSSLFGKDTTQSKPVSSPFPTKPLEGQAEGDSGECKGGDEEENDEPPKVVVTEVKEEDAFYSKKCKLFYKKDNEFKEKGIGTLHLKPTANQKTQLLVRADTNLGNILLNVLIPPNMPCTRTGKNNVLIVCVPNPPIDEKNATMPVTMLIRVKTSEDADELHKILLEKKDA
UniProt Q9Y324: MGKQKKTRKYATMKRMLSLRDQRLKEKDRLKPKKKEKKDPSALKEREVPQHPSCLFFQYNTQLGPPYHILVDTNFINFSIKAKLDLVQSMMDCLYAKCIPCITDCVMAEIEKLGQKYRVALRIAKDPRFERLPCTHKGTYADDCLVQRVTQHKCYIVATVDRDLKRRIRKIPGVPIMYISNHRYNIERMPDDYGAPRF
UniProt Q9UJA5: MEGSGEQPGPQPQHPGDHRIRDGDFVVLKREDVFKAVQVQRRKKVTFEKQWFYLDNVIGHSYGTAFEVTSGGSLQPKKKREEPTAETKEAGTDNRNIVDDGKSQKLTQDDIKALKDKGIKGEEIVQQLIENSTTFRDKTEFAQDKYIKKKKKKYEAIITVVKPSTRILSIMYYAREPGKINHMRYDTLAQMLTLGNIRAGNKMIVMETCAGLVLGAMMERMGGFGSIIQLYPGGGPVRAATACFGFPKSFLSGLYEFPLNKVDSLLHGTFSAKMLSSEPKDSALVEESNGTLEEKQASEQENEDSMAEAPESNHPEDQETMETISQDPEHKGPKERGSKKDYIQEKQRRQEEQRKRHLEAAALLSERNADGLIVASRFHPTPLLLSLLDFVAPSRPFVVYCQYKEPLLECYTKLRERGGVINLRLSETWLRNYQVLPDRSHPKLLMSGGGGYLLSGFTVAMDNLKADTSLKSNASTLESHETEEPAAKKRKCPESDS
UniProt Q9Y2X3: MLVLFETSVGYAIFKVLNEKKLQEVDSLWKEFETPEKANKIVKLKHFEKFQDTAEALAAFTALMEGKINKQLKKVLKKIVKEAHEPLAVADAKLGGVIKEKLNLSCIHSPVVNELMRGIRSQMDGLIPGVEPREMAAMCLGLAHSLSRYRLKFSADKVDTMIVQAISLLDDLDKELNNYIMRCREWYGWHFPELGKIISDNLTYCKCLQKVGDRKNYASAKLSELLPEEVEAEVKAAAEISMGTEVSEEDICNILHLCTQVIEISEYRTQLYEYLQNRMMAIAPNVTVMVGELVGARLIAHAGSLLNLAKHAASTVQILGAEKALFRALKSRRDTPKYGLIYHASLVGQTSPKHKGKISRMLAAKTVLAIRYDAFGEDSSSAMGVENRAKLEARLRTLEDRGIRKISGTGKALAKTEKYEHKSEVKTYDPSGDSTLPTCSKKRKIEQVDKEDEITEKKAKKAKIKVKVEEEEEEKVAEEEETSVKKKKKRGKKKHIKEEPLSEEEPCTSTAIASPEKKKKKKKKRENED
UniProt Q9Y3A3: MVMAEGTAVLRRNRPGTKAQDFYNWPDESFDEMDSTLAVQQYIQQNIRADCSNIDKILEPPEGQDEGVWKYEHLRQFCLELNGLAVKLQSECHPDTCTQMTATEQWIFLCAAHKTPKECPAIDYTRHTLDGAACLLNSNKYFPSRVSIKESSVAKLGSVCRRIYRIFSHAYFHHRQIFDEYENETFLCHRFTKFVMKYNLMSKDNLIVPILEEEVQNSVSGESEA

The entries are a selection whose mix differs from that of the whole data set. The data scatter; read single values as rough.

Compound in this experiment: COC(=O)/C=C/c1ccccc1 [methyl cinnamate]
As to the kind of experiment: log2 ratio of iodoacetamide-alkyne labeling of the cysteine site, DMSO over compound (competition); higher = stronger covalent engagement of the cysteine by the compound, active = 1 or more. Conditions: 500 µM; treatment time 1 h; system: HEK293T cell lysate. In short, it runs like this: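 HEK293T lysate at 2 mg/mL was treated with vehicle or electrophile (500 µM) for 1 h at ambient temperature, then labelled with iodoacetamide alkyne (1 h), clicked to sCIP-TMT reagents, pooled, digested with trypsin overnight at 37 °C, enriched on streptavidin and eluted with acid. Peptides were analysed by Orbitrap Eclipse LC-MS/MS with FAIMS and quantified in FragPipe, using duplicate channels and three replicates, with cysteines quantified in only one replicate excluded. The log2 competition ratio for each cysteine is the mean control-channel reporter intensity divided by the mean compound-channel reporter intensity.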
Turning to UniProt Q9UPN7_C689, the “log2 ratio of iodoacetamide-alkyne labeling” value (from here on “log2 ratio”) is inactive: 0.0483.
Next, SNX6 C348 (UniProt Q9UNH7): inactive: 0.185.
Next, TRIM33 C153 (UniProt Q9UPN9): inactive: 0.276; UFC1 C116 (UniProt Q9Y3C8): inactive: 0.0511; LUC7L2 C348 (UniProt Q9Y383): inactive: 0.262.
Next, NUP50 C165 (UniProt Q9UKX7): inactive: 0.143.
Take FCF1 C154 (UniProt Q9Y324): the “log2 ratio” value is inactive: 0.19.
Take TRMT6 C492 (UniProt Q9UJA5): the “log2 ratio” value is inactive: 0.39.
PACSIN3 C421 (UniProt Q9UKS6): the “log2 ratio” value is inactive: -0.0248.
Next, UniProt Q9UI30_C33: inactive: 0.0135; NOP58 C439 (UniProt Q9Y2X3): inactive: 0.172; UniProt Q9Y3A3_C134: inactive: 0.173.
Regarding UniProt Q9UIF8_C1223, the “log2 ratio” value is inactive: -0.171.
Regarding TLN1 C1023 (UniProt Q9Y490), the “log2 ratio” value is inactive: -0.137.
Next, MRPS7 C152 (UniProt Q9Y2R9): inactive: 0.0201; SRRM2 C2130 (UniProt Q9UQ35): inactive: 0.223.
